# According to PubChem BioAssay AID1439 (NMMLSC, 2008):
# Protein sequences, listed by entry. Tags and fused reporters are not part of them.
# UniProt P09471, whole entry, looked up: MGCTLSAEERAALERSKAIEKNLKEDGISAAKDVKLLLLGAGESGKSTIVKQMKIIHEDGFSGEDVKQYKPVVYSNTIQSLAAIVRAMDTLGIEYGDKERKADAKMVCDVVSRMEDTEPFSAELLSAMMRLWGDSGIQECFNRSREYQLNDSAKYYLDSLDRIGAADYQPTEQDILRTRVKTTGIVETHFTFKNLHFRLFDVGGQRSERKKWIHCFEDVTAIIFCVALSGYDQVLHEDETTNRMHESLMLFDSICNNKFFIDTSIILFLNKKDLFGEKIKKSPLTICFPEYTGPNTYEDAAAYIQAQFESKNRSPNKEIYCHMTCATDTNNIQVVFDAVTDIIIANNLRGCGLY
# In all, about 220,000 compounds went through this assay and about 770 (0.35%) were called active. The shares of active, inactive and inconclusive entries below differ from those in the screen. Cut-off read from the data, not from the text of the source: active = binding response below about 49% or above about 150%; inconclusive = no clear call, values can overlap the other calls; inactive = in between.
# Target: Guanine nucleotide-binding protein G(o) subunit alpha (Homo sapiens) (UniProt P09471)
# Assay: RGS7-Galphao binding modulators, primary screen, biochemical, multiplexed bead flow cytometry (AID 1439);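 note: fluorescent Galphao held in activated GDP-AlF4 state binding bead-coupled RGS7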
# Conditions: at 10 µM, actives lie on both sides
row,SMILES,binding response (% of control)
1,CC1S/C(=N/N=C/c2cccc([N+](=O)[O-])c2)NC1=O (stereo not drawn),inconclusive: 96.4%
2,COc1ccc(N=C/C=C2/C=C(c3ccccc3)OC(C)(C)O2)cc1,inactive: 107%
3,COc1cccc(C(=O)Nc2cccc(OCC(=O)c3ccccc3)c2)c1,inconclusive: 99.8%
4,NS(=O)(=O)c1ccc(NC2=CC(c3ccc(F)cc3)N(c3ccc(S(N)(=O)=O)cc3)C2=O)cc1 (stereo not drawn),inconclusive: 348%
5,CC(=C/C(=O)O)/C(=C\c1ccc(Br)o1)C(=O)O,inconclusive: 96.5%
6,Cc1csc(NC(=O)CSc2nnc(-c3ccoc3C)n2C(C)c2ccccc2)n1 (stereo not drawn),inconclusive: 106%
7,CC1(C)CC(=O)c2c(S(C)(=O)=O)sc(Br)c2C1,inconclusive: 83.9%
8,Cc1[nH]c2ccccc2c1/C=N/NC(=O)CNC(=O)c1ccco1,inconclusive: 60%
9,N#CCSc1nccc(/C=C/c2ccccc2)n1,inconclusive: 110%
10,CCCn1nc(NC(=O)C2CCCO2)c2cc3cccc(C)c3nc21 (stereo not drawn),inconclusive: 21.7%
11,O=C(NCCc1nc2ccccc2[nH]1)c1ccc([N+](=O)[O-])cc1,inconclusive: 32.9%
12,COc1ccc(-n2c(CNC(=O)COc3ccc(Cl)cc3Cl)n[nH]c2=S)cc1,inactive: 98.7%
13,Cc1onc(-c2ccccc2Cl)c1C(=O)OCC(=O)c1c(N)n(C)c(=O)n(C)c1=O,inconclusive: 112%
14,O=C(O)c1ccc(C(=O)c2ccc3c(c2)C(=O)N(CCO)C3=O)cc1,inconclusive: 99%
15,COc1ccc(N2CCN(C(C)C(=O)Nc3nnc(C)s3)CC2)cc1 (stereo not drawn),inactive: 107%
16,Cc1cc(C(=O)COC(=O)c2ccc[nH]c2=O)c(C)n1-c1ccccc1F,inconclusive: -101%
17,CS(=O)(=O)N1CCN(c2ccc(NC(=O)COc3ccccc3)cc2)CC1,inconclusive: 88.5%
18,CCC(CC)=NNc1ccc(S(N)(=O)=O)cc1[N+](=O)[O-],inconclusive: 17.8%
19,CC(C)CCNC(=O)C(c1ccco1)N(Cc1ccc(F)cc1)C(=O)c1snc(C(N)=O)c1N (stereo not drawn),inactive: 111%
20,COCCNC(=S)NCCc1ccc(Cl)cc1Cl,inconclusive: 82.8%

row,SMILES,binding response (% of control)
1,CCNC(=O)N1CCN(C(=O)NCC)CC1,inconclusive: 117%
2,Nc1nc(Sc2ncccc2[N+](=O)[O-])n[nH]1,inconclusive: 95.5%
3,COc1ccc(/C=C(\C#N)C(=O)OCC(=O)Nc2ccc(-c3nc4ccc(C)cc4s3)cc2)cc1,inactive: 101%
4,CCCCN(C(=O)c1ccc(NC(=O)C(C)C)cc1)c1ccccc1,inconclusive: 91.3%
5,COC(C[C@H]1O[C@@H]1[C@H](O)COCc1ccccc1)OC,inconclusive: 111%
6,Cc1cc(=O)[nH]c2c1cnn2Cc1ccccc1,inactive: 105%
7,C=CCN=c1scc(-c2ccco2)n1/N=C/c1ccc(O)c(O)c1O,inconclusive: 146%
8,Nn1c(C2COc3ccccc3O2)n[nH]c1=S (stereo not drawn),inconclusive: -195%
9,CCN(CC(=O)Nc1c(F)cccc1F)C(=O)CCc1ccc(OC)cc1,inconclusive: 96.4%
10,Cc1nc(C(=O)NC2CC2)sc1C1(C)CC(c2cccc([N+](=O)[O-])c2)=NO1 (stereo not drawn),inconclusive: 84.8%
11,CC(=O)Nc1nc(C)c(Oc2ccc(Cl)cc2)c(=O)[nH]1,inconclusive: 92.9%
12,CCOC(=O)C1(C(F)(F)F)N=C(c2ccccc2F)OC(N(C)C)=N1 (stereo not drawn),inconclusive: 110%
13,O=C(/C=C\Nc1ccc2c(c1)OCO2)c1ccc(Cl)s1,inconclusive: 116%
14,COc1ccc(OC)c(-n2c(Cn3c(-c4ccccn4)nc4ccccc43)n[nH]c2=S)c1,inconclusive: 66.9%
15,CCC(Sc1nc(N)c(NC(=O)c2ccc(OC)cc2)c(=O)[nH]1)C(=O)O (stereo not drawn),inconclusive: 84.9%
16,Oc1ccc2ccccc2c1N=Nc1ccccc1F,inconclusive: 74.1%
17,NC(=O)c1cc[n+](CC(=O)c2ccc(NC(=O)c3ccccc3)cc2)cc1,inconclusive: 104%
18,O=C(Nc1ccc(Cl)cc1)[C@@H]1[C@@H]2C(=O)N(c3cccc(F)c3)C(=O)[C@@H]2[C@H]2C=CC=NN21,inconclusive: 112%
19,CC(C)Oc1ccc(/C=C/C(=O)NCC2COc3ccccc3O2)cc1 (stereo not drawn),inconclusive: 144%
20,Cc1nc(N2CCN(Cc3ccc(Cl)cc3)CC2)c2oc3ccccc3c2n1,inconclusive: 194%

# In the list so far, 7 have fluorine:
row,SMILES,binding response (% of control)
4,NS(=O)(=O)c1ccc(NC2=CC(c3ccc(F)cc3)N(c3ccc(S(N)(=O)=O)cc3)C2=O)cc1 (stereo not drawn),inconclusive: 348%
16,Cc1cc(C(=O)COC(=O)c2ccc[nH]c2=O)c(C)n1-c1ccccc1F,inconclusive: -101%
19,CC(C)CCNC(=O)C(c1ccco1)N(Cc1ccc(F)cc1)C(=O)c1snc(C(N)=O)c1N (stereo not drawn),inactive: 111%
9,CCN(CC(=O)Nc1c(F)cccc1F)C(=O)CCc1ccc(OC)cc1,inconclusive: 96.4%
12,CCOC(=O)C1(C(F)(F)F)N=C(c2ccccc2F)OC(N(C)C)=N1 (stereo not drawn),inconclusive: 110%
16,Oc1ccc2ccccc2c1N=Nc1ccccc1F,inconclusive: 74.1%
18,O=C(Nc1ccc(Cl)cc1)[C@@H]1[C@@H]2C(=O)N(c3cccc(F)c3)C(=O)[C@@H]2[C@H]2C=CC=NN21,inconclusive: 112%

# Continued.

row,SMILES,binding response (% of control)
1,COc1ccc(Oc2cccc(Cl)c2CNC(=O)CCC(=O)O)cc1,inconclusive: 46.3%
2,Cc1cccc(-c2noc(-c3ccno3)n2)c1,inconclusive: 177%
3,CN(C)c1ccc(/C=C(\C#N)c2ccccc2)cc1,inconclusive: 117%
4,O=C(c1ccccc1-c1ccccc1)N1CCCCC1,inconclusive: 97%
5,O=C(NCc1ccccc1)Nc1cccc2ccccc12,inconclusive: 90.4%
6,CCN1CCN(c2ncnc3c2cnn3-c2ccc(C)cc2C)CC1,inconclusive: 103%
7,COc1cc(O)c(C(CC(=O)N2CCN(c3ccccc3)CC2)c2ccc3c(c2)OCO3)c(OC)c1 (stereo not drawn),inconclusive: 80.1%
8,O=C/C=C/c1coc2ccc3ccccc3c2c1=O,inconclusive: 116%
9,Nc1cc(=O)[nH]n1C1CCCCC1,inactive: 87%
10,Cc1cc(N2CCOCC2)c2c(N)c(C)cc(C)c2n1,inactive: 148%
11,O=C(CCN1C(=O)C2C3C=CC(C3)C2C1=O)Nc1ccccc1 (stereo not drawn),inconclusive: 97.3%
12,Cc1onc(C(=O)Nc2sc3c(c2C(N)=O)CCCC3)c1[N+](=O)[O-],inconclusive: -28.8%
13,COc1ccc(-c2[nH]ncc2CN2CCC(OCc3ccccn3)CC2)c(F)c1,inconclusive: 87.3%
14,COc1ccc(C2OC(=O)C(C)(C)C(=O)C2(C)C)cc1OC (stereo not drawn),inconclusive: 245%
15,CCOc1ccccc1/C=C(/C#N)C(N)=O,inconclusive: 69.8%
16,CC(=O)N1CCN(CC(=O)Nc2ccc(C)c(S(=O)(=O)N(C)C)c2)CC1,inconclusive: 82.5%
17,Cc1ccccc1C(=O)NCC(=O)Nc1ccccc1C(F)(F)F,inconclusive: 107%
18,COc1cc(NC(=O)CN2C(=O)NC(c3ccccc3)(c3ccccc3)C2=O)c(C)cc1[N+](=O)[O-],inactive: 99%

# Reprinted at random: 2 records from the list.
row,SMILES,binding response (% of control)
16,CC(=O)N1CCN(CC(=O)Nc2ccc(C)c(S(=O)(=O)N(C)C)c2)CC1,inconclusive: 82.5%
9,Nc1cc(=O)[nH]n1C1CCCCC1,inactive: 87%
